# The supplement of paper PMC12595434, “Development of retinoid nuclear receptor pathway antagonists through targeting aldehyde dehydrogenase 1A3” (iScience, 2025)
# By UniProt entry, the sequences of proteins in these tests, tags left out. Where a name states a change or a piece, a line headed by the entry shows the natural chain unless it says otherwise.
# UniProt Q1L5Z9: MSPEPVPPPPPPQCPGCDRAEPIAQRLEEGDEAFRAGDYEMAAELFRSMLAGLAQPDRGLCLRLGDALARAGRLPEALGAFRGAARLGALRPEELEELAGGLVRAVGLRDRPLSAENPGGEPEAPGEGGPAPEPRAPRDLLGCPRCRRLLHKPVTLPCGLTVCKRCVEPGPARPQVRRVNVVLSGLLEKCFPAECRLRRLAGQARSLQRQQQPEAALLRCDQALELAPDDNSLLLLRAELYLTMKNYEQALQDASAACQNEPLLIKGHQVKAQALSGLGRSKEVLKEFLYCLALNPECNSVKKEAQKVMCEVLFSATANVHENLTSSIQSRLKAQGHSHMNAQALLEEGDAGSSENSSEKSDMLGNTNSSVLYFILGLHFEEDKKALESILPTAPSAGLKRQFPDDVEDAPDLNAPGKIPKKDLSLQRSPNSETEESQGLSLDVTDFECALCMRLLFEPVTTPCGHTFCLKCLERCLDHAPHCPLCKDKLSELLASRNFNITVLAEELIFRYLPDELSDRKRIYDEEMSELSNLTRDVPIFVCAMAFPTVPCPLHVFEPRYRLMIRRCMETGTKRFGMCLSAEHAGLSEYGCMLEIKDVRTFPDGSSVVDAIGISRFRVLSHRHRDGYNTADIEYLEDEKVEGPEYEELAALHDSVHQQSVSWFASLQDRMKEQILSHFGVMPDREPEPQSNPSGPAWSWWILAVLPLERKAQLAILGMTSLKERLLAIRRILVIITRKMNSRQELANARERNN
# UniProt Q15843, whole entry: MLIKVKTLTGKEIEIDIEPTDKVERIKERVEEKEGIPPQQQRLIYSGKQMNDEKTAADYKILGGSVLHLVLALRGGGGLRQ
# UniProt Q53H80, whole entry: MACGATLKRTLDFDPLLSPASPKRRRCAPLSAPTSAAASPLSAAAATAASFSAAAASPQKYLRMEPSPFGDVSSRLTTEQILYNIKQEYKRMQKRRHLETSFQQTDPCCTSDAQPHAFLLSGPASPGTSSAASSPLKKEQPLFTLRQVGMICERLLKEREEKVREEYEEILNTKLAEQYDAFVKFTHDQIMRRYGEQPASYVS
# UniProt Q15633: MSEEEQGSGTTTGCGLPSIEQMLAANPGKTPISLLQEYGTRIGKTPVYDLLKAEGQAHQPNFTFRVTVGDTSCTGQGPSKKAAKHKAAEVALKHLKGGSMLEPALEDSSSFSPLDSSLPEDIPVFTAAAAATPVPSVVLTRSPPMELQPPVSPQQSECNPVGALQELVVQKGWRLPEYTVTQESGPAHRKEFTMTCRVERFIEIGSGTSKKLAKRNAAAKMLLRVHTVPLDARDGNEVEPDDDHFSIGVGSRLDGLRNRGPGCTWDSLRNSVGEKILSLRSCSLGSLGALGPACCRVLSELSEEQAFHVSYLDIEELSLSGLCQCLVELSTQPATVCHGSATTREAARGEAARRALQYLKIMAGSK
# UniProt Q15147: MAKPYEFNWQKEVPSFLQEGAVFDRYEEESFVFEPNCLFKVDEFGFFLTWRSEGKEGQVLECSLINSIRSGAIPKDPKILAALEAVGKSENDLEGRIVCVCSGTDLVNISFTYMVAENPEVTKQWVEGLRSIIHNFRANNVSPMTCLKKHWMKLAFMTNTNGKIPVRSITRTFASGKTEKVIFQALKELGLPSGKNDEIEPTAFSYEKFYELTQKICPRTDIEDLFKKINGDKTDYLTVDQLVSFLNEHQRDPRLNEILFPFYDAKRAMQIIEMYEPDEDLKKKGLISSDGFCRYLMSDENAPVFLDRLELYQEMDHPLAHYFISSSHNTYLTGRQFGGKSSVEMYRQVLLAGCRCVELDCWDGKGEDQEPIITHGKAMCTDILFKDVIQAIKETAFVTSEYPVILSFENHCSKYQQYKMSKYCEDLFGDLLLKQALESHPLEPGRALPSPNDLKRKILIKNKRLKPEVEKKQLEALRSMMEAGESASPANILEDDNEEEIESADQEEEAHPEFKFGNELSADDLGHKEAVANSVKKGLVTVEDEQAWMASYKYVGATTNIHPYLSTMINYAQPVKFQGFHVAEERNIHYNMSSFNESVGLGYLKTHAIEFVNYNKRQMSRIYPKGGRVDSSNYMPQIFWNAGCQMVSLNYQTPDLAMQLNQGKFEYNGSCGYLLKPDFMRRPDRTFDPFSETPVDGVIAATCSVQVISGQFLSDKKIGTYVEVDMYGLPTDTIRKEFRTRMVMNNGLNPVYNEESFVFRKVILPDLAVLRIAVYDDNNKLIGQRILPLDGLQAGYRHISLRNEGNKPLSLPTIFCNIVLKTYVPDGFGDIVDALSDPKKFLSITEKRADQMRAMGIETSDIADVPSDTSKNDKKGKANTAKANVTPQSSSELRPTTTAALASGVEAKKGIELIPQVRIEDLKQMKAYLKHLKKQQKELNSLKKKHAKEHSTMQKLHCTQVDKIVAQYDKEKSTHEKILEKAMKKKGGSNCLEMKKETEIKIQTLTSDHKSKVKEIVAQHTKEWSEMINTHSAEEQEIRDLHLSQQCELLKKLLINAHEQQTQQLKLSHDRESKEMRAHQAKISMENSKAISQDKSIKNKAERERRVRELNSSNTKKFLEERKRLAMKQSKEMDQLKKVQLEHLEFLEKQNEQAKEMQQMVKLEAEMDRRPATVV
# UniProt Q53S08: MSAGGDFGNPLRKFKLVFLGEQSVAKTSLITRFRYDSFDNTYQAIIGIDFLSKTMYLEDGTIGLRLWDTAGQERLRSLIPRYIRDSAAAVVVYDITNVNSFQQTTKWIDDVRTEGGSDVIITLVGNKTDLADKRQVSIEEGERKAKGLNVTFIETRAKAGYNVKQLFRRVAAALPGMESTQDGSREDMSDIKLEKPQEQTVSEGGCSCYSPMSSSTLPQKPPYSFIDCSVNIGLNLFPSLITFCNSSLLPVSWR
# UniProt Q53GA4: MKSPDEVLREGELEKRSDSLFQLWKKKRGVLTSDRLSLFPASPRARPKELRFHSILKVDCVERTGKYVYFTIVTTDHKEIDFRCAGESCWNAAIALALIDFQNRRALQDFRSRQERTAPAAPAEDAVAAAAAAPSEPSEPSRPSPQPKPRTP
# UniProt Q15648, whole entry: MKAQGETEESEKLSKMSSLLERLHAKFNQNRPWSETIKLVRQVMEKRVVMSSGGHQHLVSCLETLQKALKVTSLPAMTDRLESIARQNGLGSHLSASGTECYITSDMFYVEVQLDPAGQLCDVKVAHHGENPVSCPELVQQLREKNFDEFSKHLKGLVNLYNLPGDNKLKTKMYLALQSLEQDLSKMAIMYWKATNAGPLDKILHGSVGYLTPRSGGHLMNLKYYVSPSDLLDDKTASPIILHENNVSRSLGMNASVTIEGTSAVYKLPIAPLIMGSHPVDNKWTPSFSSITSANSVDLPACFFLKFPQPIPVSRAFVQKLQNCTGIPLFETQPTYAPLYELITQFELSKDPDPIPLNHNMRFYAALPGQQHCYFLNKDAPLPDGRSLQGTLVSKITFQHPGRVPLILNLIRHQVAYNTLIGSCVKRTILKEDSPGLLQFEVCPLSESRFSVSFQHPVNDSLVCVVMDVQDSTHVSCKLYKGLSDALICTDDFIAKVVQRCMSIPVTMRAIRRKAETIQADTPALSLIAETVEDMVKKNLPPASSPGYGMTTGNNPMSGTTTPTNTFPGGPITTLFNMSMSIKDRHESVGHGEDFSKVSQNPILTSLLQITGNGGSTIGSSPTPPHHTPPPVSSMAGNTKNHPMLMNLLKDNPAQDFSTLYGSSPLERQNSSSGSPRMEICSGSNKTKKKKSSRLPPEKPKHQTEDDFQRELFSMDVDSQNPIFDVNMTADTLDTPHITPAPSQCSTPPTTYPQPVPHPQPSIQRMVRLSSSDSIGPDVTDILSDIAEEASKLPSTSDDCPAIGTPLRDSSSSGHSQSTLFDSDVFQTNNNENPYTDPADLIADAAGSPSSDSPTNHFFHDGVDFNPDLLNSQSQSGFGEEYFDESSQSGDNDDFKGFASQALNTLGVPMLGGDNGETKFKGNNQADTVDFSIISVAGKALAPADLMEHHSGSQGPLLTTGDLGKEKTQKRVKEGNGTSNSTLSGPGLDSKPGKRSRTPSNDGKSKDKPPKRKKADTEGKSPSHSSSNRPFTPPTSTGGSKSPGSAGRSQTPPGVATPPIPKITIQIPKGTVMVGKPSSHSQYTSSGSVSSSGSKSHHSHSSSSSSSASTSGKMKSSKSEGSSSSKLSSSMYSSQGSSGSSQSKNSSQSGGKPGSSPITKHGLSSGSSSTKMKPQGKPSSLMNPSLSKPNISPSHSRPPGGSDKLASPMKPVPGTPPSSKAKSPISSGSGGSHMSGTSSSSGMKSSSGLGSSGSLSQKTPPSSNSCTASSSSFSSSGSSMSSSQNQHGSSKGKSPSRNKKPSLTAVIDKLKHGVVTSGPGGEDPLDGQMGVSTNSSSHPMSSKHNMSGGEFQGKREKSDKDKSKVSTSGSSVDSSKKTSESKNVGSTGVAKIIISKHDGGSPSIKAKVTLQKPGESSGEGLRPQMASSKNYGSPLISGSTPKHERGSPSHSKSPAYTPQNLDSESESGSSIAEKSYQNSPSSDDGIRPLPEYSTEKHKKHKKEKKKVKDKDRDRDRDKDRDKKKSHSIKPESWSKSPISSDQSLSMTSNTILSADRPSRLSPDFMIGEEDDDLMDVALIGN
# UniProt Q53GS7: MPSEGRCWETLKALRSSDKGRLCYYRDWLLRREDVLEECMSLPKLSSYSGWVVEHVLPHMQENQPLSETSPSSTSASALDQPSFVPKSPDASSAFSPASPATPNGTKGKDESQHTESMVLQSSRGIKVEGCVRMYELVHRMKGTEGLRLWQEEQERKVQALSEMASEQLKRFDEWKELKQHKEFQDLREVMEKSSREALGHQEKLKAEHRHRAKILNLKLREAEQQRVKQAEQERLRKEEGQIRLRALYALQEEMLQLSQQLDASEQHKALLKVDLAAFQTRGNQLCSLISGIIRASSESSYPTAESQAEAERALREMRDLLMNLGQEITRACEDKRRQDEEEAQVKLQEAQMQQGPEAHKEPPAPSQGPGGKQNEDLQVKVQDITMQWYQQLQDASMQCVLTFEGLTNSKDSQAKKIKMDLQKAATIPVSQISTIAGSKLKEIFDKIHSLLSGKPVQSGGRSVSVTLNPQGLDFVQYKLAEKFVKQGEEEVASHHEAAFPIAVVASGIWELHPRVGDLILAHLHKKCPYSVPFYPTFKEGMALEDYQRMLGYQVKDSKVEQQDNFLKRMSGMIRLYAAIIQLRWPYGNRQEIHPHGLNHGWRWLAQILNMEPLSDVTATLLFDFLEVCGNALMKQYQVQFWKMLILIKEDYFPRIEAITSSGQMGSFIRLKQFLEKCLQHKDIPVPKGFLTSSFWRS
# UniProt Q16644, whole entry, looked up: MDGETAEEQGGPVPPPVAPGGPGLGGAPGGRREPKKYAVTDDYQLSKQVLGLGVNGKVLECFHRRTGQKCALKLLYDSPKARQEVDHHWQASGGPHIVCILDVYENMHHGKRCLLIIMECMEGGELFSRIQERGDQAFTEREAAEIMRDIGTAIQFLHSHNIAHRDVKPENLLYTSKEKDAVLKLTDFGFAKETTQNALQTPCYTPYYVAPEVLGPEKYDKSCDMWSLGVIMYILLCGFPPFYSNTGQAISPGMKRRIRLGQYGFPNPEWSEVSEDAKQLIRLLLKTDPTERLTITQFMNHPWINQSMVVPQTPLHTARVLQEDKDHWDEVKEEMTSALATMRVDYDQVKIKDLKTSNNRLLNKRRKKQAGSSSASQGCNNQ
# UniProt Q155Q3: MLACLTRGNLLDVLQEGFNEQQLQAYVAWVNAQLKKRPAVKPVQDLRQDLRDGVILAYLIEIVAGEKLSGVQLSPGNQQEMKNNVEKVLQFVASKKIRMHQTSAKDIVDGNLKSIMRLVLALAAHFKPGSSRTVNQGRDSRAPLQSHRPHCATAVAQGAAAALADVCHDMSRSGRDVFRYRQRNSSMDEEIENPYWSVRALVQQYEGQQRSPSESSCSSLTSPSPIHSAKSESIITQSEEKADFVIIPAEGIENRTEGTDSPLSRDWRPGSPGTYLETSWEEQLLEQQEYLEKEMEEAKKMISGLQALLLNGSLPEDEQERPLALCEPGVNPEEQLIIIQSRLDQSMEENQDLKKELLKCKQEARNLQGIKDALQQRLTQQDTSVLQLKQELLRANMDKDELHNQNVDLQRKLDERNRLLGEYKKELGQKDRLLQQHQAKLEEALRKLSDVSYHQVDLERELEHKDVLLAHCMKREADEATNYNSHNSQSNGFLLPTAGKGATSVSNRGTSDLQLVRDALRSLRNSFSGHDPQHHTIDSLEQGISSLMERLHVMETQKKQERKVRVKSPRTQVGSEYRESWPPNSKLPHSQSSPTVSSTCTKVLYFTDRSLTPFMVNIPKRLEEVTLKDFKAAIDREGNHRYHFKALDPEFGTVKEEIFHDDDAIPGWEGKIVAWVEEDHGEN
# The list shows a part of the results. Single values of this set are uncertain.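 Tm was set to 64 °C where no melting was found, and many curves are irregular.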
# Compound: CCc1cnccc1C(=O)Nc1cc2c(cc1F)NC(=O)CC2
# Assay: melting temperature shift (DMSO Tm minus MBE1-treated Tm) in cellular thermal proteome profiling; higher = less thermal stabilization by MBE1 (negative = stabilized by MBE1)
# Conditions: A375
Target,melting temperature shift (MBE1 concentration: 100 nM),melting temperature shift (MBE1 concentration: 1 uM)
SYPL1 (UniProt Q16563),3.88 °C,2.58 °C
UniProt Q1L5Z9,-0.263 °C,-0.878 °C
UniProt Q15843,-2.21 °C,-1.71 °C
AKIRIN2 (UniProt Q53H80),-1.33 °C,0.295 °C
TAF7 (UniProt Q15545),-1.57 °C,-0.879 °C
RBBP7 (UniProt Q16576),-1.88 °C,-1.19 °C
MAP7D1 (UniProt Q3KQU3),-0.49 °C,0.488 °C
UniProt Q17R31,-1.1 °C,0.459 °C
TPD52L1 (UniProt Q16890),-2.21 °C,-4.25 °C
PDCD4 (UniProt Q53EL6),-0.447 °C,-0.79 °C
PTGES3 (UniProt Q15185),0.894 °C,-0.342 °C
MEA1 (UniProt Q16626),-2.55 °C,-1.78 °C
PAFAH1B3 (UniProt Q15102),0.366 °C,1.07 °C
DECR1 (UniProt Q16698),-0.241 °C,-0.634 °C
INF2 (UniProt Q27J81),0.259 °C,0.72 °C
GRAMD1B (UniProt Q3KR37),-2.65 °C,-2.1 °C
CCDC93 (UniProt Q567U6),0.684 °C,0.482 °C
PSMD5 (UniProt Q16401),-0.183 °C,-0.147 °C
RPS6KA2 (UniProt Q15349),0.66 °C,-0.55 °C

# Exported with tabs: entries from further up.
Target	melting temperature shift (MBE1 concentration: 100 nM)	melting temperature shift (MBE1 concentration: 1 uM)
AKIRIN2 (UniProt Q53H80)	-1.33 °C	0.295 °C
GRAMD1B (UniProt Q3KR37)	-2.65 °C	-2.1 °C

# The results go on.

Target,melting temperature shift (MBE1 concentration: 100 nM),melting temperature shift (MBE1 concentration: 1 uM)
CTU2 (UniProt Q2VPK5),-0.416 °C,0.482 °C
UniProt Q2YD98,-1.41 °C,-0.724 °C
UniProt Q15120,0.902 °C,0.34 °C
UniProt Q2VIQ3,0.359 °C,-1.01 °C
TRAM1 (UniProt Q15629),0.696 °C,0.501 °C
IFI16 (UniProt Q16666),-0.25 °C,-0.224 °C
PCBP2 (UniProt Q15366),-0.48 °C,-0.416 °C
GUK1 (UniProt Q16774),-0.047 °C,0.165 °C
SAFB (UniProt Q15424),-2.12 °C,-2.93 °C
CEP55 (UniProt Q53EZ4),-0.807 °C,-0.198 °C
CCDC6 (UniProt Q16204),-1.86 °C,-0.181 °C
TARBP2 (UniProt Q15633),0.302 °C,-1.16 °C
EIF4H (UniProt Q15056),0.455 °C,0.174 °C
UniProt Q53HV7,0.409 °C,0.33 °C
UniProt Q460N5,-0.672 °C,-0.0256 °C
KYNU (UniProt Q16719),-0.462 °C,1.13 °C
UniProt Q15147,-0.263 °C,0.769 °C
UniProt Q53S08,-1.98 °C,-1.8 °C
HSD17B12 (UniProt Q53GQ0),-1.2 °C,-0.389 °C

Target,melting temperature shift (MBE1 concentration: 100 nM),melting temperature shift (MBE1 concentration: 1 uM)
PCBP1 (UniProt Q15365),0.0672 °C,-0.898 °C
UniProt Q15417,0.195 °C,-0.519 °C
ETFDH (UniProt Q16134),-0.597 °C,-0.309 °C
P3H1 (UniProt Q32P28),-0.55 °C,-0.872 °C
TAB1 (UniProt Q15750),-0.0659 °C,-0.0518 °C
UniProt Q16594,-0.653 °C,-0.653 °C
SF3B3 (UniProt Q15393),-0.514 °C,0.263 °C
PHLDA2 (UniProt Q53GA4),-1.35 °C,-0.263 °C
CLPP (UniProt Q16740),-0.623 °C,-0.0733 °C
MED1 (UniProt Q15648),0.171 °C,0.556 °C
UniProt Q53GL7,-0.554 °C,-0.771 °C
UniProt Q53GS7,-0.616 °C,0.212 °C
MAPKAPK3 (UniProt Q16644),-1.2 °C,-1.21 °C
RALBP1 (UniProt Q15311),0.884 °C,-0.103 °C
FAM98B (UniProt Q52LJ0),1.12 °C,0.727 °C
UniProt Q16513,-0.682 °C,-0.574 °C
MSMO1 (UniProt Q15800),-1.75 °C,-4.19 °C
UniProt Q155Q3,-1.29 °C,-0.0833 °C
PDS5A (UniProt Q29RF7),-0.16 °C,-0.102 °C
